Here are results for one molecule from PMC4756849, “A novel high-throughput activity assay for the Trypanosoma brucei editosome enzyme REL1 and other RNA ligases” (Nucleic Acids Research, 2015).

No constants are given. Whether binding was seen depends on the method and setting. Some binding calls cover weakened binding; strength is not graded here. Sequences can lack the tags named with a protein.

In this assay the target is T1, KREPA2 (MP63) fragment, amino acids 56-176, with N-terminal 6xHis-tag and linker (Trypanosoma brucei).
T1 sequence: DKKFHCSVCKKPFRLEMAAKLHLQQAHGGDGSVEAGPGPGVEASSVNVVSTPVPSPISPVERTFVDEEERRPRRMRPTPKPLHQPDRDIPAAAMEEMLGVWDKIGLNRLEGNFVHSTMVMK
The experiment in a line: co-purification by IMAC of co-expressed proteins; REL1(51-469) and 6xHis-KREPA2(56-176) co-expressed in E. coli; cleared lysate (20 mM Tris/HCl pH 8.0, 500 mM NaCl, 10% glycerol, 2 mM DTT) on Ni2+ HiTrap FF IMAC by the His tag of KREPA2; wash 40 mM imidazole, elution 40-500 mM imidazole gradient; SDS-PAGE.

B1: Trypanosoma brucei RNA editing ligase 1 (REL1), amino acids 51-469 (enzyme, UniProt P86927 51-469)
chain: DQSDFSPYIEIDLPSESRIQSLHKSGLAAQEWVACEKVHGTNFGIYLINQGDHEVVRFAKRSGIMDPNENFFGYHILIDEFTAQIRILNDLLKQKYGLSRVGRLVLNGELFGAKYKHPLVPKSEKWCTLPNGKKFPIAGVQIQREPFPQYSPELHFFAFDIKYSVSGAEEDFVLLGYDEFVEFSSKVPNLLYARALVRGTLDECLAFDVENFMTPLPALLGLGNYPLEGNLAEGVVIRHVRRGDPAVEKHNVSTIIKLRCSSFMELKHPGKQKELKETFIDTVRSGALRRVRGNVTVISDSMLPQVEAAANDLLLNNVSDGRLSNVLSKIGREPLLSGEVSQVDVALMLAKDALKDFLKEVDSLVLNTTLAFRKLLITNVYFESKRLVEQKWKELMQEEAAAQSEAIPPLSPAAPTKGE
With B1, the binding result is on record as “binds”.
